Some of these results come from one statement about several compounds together. At least one read-out could not be matched to a standard name with certainty. At least one structure is not confirmed: it was looked up by name or label, or the drawing left a doubt.
System: VEGF induced increases in intracellular calcium levels in HUVEC (human umbilical vein endothelial cells)
Assay: VEGF Stimulated Ca++ Signal in vitro (FLIPR)
Assay type: cell-based
Conditions: either-or criterion summarising Table 2
Method: Cells were loaded with calcium indicator Fluo-4 for 45 minutes at 37° C. Cells were washed 4 times (Original Cell Wash, Labsystems) to remove extracellular dye. […] Data were generated by determining max-min fluorescence levels for unstimulated, stimulated, and drug treated samples. IC50 values for test compounds were calculated from % inhibition of VEGF stimulated responses in the absence of inhibitor.

Compound	% inhibition of VEGF or VEGF IC50 in either the VEGF stimulated Ca++ signal assay or KDR assay
O=C1Nc2ccccc2C1=CNc1ccccc1 [Example 1, 3-Phenylaminomethylene-1,3-dihydro-indol-2-one]	either % inhibition of VEGF>79% or VEGIF IC50<1.0 μM
CCc1ccc(NC=C2C(=O)Nc3ccccc32)cc1 [Example 5, 3-[(4-Ethyl-phenylamino)-methylene]-1,3-dihydro-indol-2-one]	either % inhibition of VEGF>79% or VEGIF IC50<1.0 μM
CCc1cccc(NC=C2C(=O)Nc3ccccc32)c1 [Example 6]	either % inhibition of VEGF>79% or VEGIF IC50<1.0 μM
O=C1Nc2ccccc2C1=CNc1ccc(O)cc1 [Example 12, 3-[(4-Hydroxy-phenylamino)-methylene]-1,3-dihydro-indol-2-one]	either % inhibition of VEGF>79% or VEGIF IC50<1.0 μM
CC(C)(C)c1ccc(NC=C2C(=O)Nc3ccccc32)cc1 [Example 17, 3-[(4-tert-Butyl-phenylamino)-methylene]-1,3-dihydro-indol-2-one]	either % inhibition of VEGF>79% or VEGIF IC50<1.0 μM
COc1ccc(NC=C2C(=O)Nc3ccccc32)cc1F [Example 21, 3-[(3-Fluoro-4-methoxy-phenylamino)-methylene]-1,3-dihydro-indol-2-one]	either % inhibition of VEGF>79% or VEGIF IC50<1.0 μM
N#Cc1ccc(NC=C2C(=O)Nc3ccccc32)cc1 [Example 29, 3-[(4-Cyanophenylamino)-methylene]-1,3-dihydro-indol-2-one]	either % inhibition of VEGF>79% or VEGIF IC50<1.0 μM
O=C1Nc2ccccc2C1=CNc1ccc2[nH]ncc2c1 [Example 32, 3-[(5-Indazolylamino)-methylene]-1,3-dihydro-indol-2-one]	either % inhibition of VEGF>79% or VEGIF IC50<1.0 μM
NC(=O)c1ccc(NC=C2C(=O)Nc3ccccc32)cc1 [Example 33, 3-[(4-Benzamidylamino)-methylene]-1,3-dihydro-indol-2-one]	either % inhibition of VEGF>79% or VEGIF IC50<1.0 μM
CC(=O)Nc1ccc(NC=C2C(=O)Nc3ccccc32)cc1 [Example 34, 3-[(4-Acetanilidylamino)-methylene]-1,3-dihydro-indol-2-one]	either % inhibition of VEGF>79% or VEGIF IC50<1.0 μM
O=C(O)Cc1cccc(NC=C2C(=O)Nc3ccccc32)c1 [Example 35, (3-[(2-Oxo-1,2-dihydro-indol-3-ylidenemethyl)-amino]-phenyl-)acetic acid]	either % inhibition of VEGF>79% or VEGIF IC50<1.0 μM
NS(=O)(=O)c1ccc(NC=C2C(=O)Nc3ccccc32)cc1 [Example 38, 2-Oxo-1,2-dihydro-indol-3-ylidenemethyl-sulfanilamide]	either % inhibition of VEGF>79% or VEGIF IC50<1.0 μM
O=C1Nc2ccccc2C1=CNc1ccc2ncsc2c1 [Example 43, 3-[(6-Benzthioazolylamino)-methylene]-1,3-dihydro-indol-2-one]	either % inhibition of VEGF>79% or VEGIF IC50<1.0 μM
O=C1Nc2ccccc2C1=CNc1ccc(C(=O)O)c(O)c1 [Example 44, 2-Hydroxy-4-[(2-oxo-1,2-dihydro-indol-3-ylidenemethyl)-amino]-benzoic acid]	either % inhibition of VEGF>79% or VEGIF IC50<1.0 μM
O=C1Nc2ccccc2C1=CNc1ccc(OC(F)F)cc1 [Example 50, 3-{[4-(1,1-Difluoro-methoxy)-phenylamino]-methylene}-1,3-dihydro-indol-2-one]	either % inhibition of VEGF>79% or VEGIF IC50<1.0 μM
CC(C)c1ccc(NC=C2C(=O)Nc3ccccc32)cc1 [Example 52, 3-[(4-Isopropyl-phenylamino)-methylene]-1,3-dihydro-indol-2-one]	either % inhibition of VEGF>79% or VEGIF IC50<1.0 μM
COc1ccc(NC=C2C(=O)Nc3cccc(C)c32)cc1 [Example 59, 3-[(4-Methoxy-phenylamino)-methylene]-4-methyl-1,3-dihydro-indol-2-one]	either % inhibition of VEGF>79% or VEGIF IC50<1.0 μM
Cc1cccc2c1C(=CNc1cccc(O)c1)C(=O)N2 [Example 60, 3-[(3-Hydroxy-phenylarmino)-methylene]-4-methyl-1,3-dihydro-indol-2-one]	either % inhibition of VEGF>79% or VEGIF IC50<1.0 μM

Compound	% inhibition of VEGF or VEGF IC50 in either the VEGF stimulated Ca++ signal assay or KDR assay
COc1ccc(NC=C2C(=O)Nc3ccc(Cl)cc32)cc1O [Example 65, 3-[(3-Hydroxy-4-methoxyphenylamino)-methylene]-5-chloro-1,3-dihydro-indol-2-one]	either % inhibition of VEGF>79% or VEGIF IC50<1.0 μM
CC(O)c1ccc(NC=C2C(=O)Nc3ccc(Cl)cc32)cc1 (stereo not drawn) [Example 72, 5-Chloro-3-{[4-(1-hydroxy-ethyl)-phenylamino]-methylene}-1,3-dihydro-indol-2-one]	either % inhibition of VEGF>79% or VEGIF IC50<1.0 μM
COc1ccc(NC=C2C(=O)Nc3ccc(Cl)cc32)cc1 [Example 73, 3-[(4-Methoxyphenylamino)-methylene]-5-chloro-1,3-dihydro-indol-2-one]	either % inhibition of VEGF>79% or VEGIF IC50<1.0 μM
CCOc1ccc(NC=C2C(=O)Nc3ccccc32)cc1 [Example 82, 3-[(4-Ethoxyphenylamino)-methylene]-1,3-dihydro-indol-2-one]	either % inhibition of VEGF>79% or VEGIF IC50<1.0 μM
O=C1Nc2ccccc2C1=CNc1ccc(CCO)cc1 [Example 87, 3-{[4-(2-Hydroxyethyl)phenylamino]-methylene}-1,3-dihydro-indol-2-one]	either % inhibition of VEGF>79% or VEGIF IC50<1.0 μM
COc1ccc(NC=C2C(=O)Nc3cccc(C)c32)cc1F [Example 91, 3-[(3-Fluoro-4-methoxy-phenylamino)-methylene]-4-methyl-1,3-dihydro-indol-2-one]	either % inhibition of VEGF>79% or VEGIF IC50<1.0 μM
Cc1cccc2c1C(=CNc1ccc3ncsc3c1)C(=O)N2 [Example 92, 3-(Benzothiazol-6-ylaminomethylene)-4-methyl-1,3-dihydro-indol-2-one]	either % inhibition of VEGF>79% or VEGIF IC50<1.0 μM
COC(=O)c1ccc(NC=C2C(=O)Nc3cccc(C)c32)cc1OC [Example 93, 2-Methoxy-4-[(4-methyl-2-oxo-1,2-dihydro-indol-3-ylidenemethyl)-amino]-benzoic acid methyl ester]	either % inhibition of VEGF>79% or VEGIF IC50<1.0 μM
COc1cccc(NC=C2C(=O)Nc3ccccc32)c1 [Example 94, 3-[(3-Methoxy-phenylamino)-methylene]-1,3-dihydro-indol-2-one]	either % inhibition of VEGF>79% or VEGIF IC50<1.0 μM
Cc1cccc2c1C(=CNc1ccc(O)cc1)C(=O)N2 [Example 96, 3-[(4-Hydroxy-phenylamino)-methylene]-4-methyl-1,3-dihydro-indol-2-one]	either % inhibition of VEGF>79% or VEGIF IC50<1.0 μM
Cc1cccc2c1C(=CNc1ccc3cc[nH]c3c1)C(=O)N2 [Example 97, 3-[(1H-Indol-6-ylamino)-methylene]-4-methyl-1,3-dihydro-indol-2-one]	either % inhibition of VEGF>79% or VEGIF IC50<1.0 μM
COc1ccc(NC=C2C(=O)Nc3ccc(Cl)cc32)cc1OC [Example 102, 5-Chloro-3-[(3,4-dimethoxyphenylamino)-methylene]-1,3-dihydro-indol-2-one]	either % inhibition of VEGF>79% or VEGIF IC50<1.0 μM
O=C1Nc2ccc(Cl)cc2C1=CNc1ccc2cn[nH]c2c1 [Example 103]	either % inhibition of VEGF>79% or VEGIF IC50<1.0 μM
CCN(CC)Cc1cc(NC=C2C(=O)Nc3ccc(Cl)cc32)ccc1O [Example 109, 5-Chloro-3-[(4-hydoxy-3-(diethylaminomethyl)phenylamino)-methylene]-1,3-dihydro-indol-2-one]	either % inhibition of VEGF>79% or VEGIF IC50<1.0 μM
O=C1Nc2ccc(Cl)cc2C1=CNc1ccc2[nH]ccc2c1 [Example 110, 5-(5-Chloro-2-oxo-1,2-dihydro-indol-3-ylidenemethylamino)indole]	either % inhibition of VEGF>79% or VEGIF IC50<1.0 μM
O=C1Nc2ccc(Cl)cc2C1=CNc1ccc(CO)cc1 [Example 111, 5-Chloro-3-[(4-(hydoxymethyl)phenylamino)-methylene]-1,3-dihydro-indol-2-one]	either % inhibition of VEGF>79% or VEGIF IC50<1.0 μM
CC(=O)Nc1ccc(NC=C2C(=O)Nc3ccc(Cl)cc32)cc1 [Example 114, N-{4-[(5-Chloro-2-oxo-1,2-dihydro-indol-3-ylidenemethyl)-amino]-phenyl}-acetamide]	either % inhibition of VEGF>79% or VEGIF IC50<1.0 μM
O=C(O)Cc1ccc(NC=C2C(=O)Nc3ccc(Cl)cc32)cc1 [Example 115, {4-[(5-Chloro-2-oxo-1,2-dihydro-indol-3-ylidenemethyl)-amino]-phenyl}-acetic acid]	either % inhibition of VEGF>79% or VEGIF IC50<1.0 μM

From patent US20030225152A1, “3-(Arylamino)methylene-1, 3-dihydro-2h-indol-2-ones as kinase inhibitors” (priority 2001, published 2003)
